From article PMC3036620
Results are given in words; binding and its absence hold for the method and conditions named. Binding seen in cells or lysates may run through a third protein. Some results given as binding are weak or reduced against the parent protein; the word gives no strength.

Protein sequences, listed by entry. Tags and fused reporters are not part of them. Residues count along the entry.
UniProt O88307, residues 82-2215: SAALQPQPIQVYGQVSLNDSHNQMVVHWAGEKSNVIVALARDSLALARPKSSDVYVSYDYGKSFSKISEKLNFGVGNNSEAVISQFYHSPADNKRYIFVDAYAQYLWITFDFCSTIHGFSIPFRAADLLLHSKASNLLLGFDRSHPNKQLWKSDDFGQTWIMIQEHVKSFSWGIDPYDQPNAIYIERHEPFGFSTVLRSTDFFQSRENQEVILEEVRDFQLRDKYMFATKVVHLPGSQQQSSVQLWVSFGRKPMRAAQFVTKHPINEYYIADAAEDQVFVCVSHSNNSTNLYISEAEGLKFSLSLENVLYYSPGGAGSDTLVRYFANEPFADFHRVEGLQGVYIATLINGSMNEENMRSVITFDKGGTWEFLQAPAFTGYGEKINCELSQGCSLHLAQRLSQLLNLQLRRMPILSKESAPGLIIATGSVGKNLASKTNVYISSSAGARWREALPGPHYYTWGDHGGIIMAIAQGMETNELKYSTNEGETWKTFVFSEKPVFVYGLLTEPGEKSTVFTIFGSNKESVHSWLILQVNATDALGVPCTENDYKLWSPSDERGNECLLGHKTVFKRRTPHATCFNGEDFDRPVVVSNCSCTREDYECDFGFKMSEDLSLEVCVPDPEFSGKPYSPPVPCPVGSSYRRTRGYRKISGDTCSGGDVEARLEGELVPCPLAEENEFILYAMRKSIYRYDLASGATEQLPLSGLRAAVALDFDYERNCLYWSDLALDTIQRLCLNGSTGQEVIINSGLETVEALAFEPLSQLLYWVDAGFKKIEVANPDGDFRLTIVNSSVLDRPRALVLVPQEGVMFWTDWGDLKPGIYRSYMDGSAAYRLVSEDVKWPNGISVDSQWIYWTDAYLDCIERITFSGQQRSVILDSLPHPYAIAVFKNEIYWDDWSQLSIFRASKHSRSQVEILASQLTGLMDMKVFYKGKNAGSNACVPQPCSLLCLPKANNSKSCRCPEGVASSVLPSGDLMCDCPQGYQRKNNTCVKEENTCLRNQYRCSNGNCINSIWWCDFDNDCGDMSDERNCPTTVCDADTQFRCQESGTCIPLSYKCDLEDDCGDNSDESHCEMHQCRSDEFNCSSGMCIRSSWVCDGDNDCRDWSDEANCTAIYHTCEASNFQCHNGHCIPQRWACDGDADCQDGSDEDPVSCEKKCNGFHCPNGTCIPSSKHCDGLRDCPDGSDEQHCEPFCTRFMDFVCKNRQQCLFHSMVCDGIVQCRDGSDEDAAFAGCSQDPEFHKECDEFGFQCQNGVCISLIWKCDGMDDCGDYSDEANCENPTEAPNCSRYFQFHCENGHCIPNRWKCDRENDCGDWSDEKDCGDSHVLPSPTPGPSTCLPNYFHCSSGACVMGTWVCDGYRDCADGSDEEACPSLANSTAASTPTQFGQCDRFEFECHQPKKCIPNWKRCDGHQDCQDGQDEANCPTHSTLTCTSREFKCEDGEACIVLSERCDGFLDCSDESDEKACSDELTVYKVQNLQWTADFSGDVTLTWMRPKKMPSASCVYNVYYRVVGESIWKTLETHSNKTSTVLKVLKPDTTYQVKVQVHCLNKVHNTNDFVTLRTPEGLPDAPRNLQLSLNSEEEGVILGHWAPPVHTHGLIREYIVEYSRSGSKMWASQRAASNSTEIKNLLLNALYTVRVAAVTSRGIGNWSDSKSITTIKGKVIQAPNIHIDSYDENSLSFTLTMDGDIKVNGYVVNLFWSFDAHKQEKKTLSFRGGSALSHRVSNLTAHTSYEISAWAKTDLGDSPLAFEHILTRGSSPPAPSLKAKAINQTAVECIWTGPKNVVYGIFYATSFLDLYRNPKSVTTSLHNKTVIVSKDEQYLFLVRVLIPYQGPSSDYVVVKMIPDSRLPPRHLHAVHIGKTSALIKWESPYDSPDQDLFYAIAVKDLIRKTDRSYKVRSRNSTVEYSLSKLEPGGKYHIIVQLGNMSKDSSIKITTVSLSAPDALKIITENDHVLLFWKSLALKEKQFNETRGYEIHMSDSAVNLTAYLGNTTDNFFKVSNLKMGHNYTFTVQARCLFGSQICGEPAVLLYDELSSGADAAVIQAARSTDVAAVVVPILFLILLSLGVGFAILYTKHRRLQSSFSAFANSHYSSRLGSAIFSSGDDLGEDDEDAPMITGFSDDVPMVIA
UniProt P70336: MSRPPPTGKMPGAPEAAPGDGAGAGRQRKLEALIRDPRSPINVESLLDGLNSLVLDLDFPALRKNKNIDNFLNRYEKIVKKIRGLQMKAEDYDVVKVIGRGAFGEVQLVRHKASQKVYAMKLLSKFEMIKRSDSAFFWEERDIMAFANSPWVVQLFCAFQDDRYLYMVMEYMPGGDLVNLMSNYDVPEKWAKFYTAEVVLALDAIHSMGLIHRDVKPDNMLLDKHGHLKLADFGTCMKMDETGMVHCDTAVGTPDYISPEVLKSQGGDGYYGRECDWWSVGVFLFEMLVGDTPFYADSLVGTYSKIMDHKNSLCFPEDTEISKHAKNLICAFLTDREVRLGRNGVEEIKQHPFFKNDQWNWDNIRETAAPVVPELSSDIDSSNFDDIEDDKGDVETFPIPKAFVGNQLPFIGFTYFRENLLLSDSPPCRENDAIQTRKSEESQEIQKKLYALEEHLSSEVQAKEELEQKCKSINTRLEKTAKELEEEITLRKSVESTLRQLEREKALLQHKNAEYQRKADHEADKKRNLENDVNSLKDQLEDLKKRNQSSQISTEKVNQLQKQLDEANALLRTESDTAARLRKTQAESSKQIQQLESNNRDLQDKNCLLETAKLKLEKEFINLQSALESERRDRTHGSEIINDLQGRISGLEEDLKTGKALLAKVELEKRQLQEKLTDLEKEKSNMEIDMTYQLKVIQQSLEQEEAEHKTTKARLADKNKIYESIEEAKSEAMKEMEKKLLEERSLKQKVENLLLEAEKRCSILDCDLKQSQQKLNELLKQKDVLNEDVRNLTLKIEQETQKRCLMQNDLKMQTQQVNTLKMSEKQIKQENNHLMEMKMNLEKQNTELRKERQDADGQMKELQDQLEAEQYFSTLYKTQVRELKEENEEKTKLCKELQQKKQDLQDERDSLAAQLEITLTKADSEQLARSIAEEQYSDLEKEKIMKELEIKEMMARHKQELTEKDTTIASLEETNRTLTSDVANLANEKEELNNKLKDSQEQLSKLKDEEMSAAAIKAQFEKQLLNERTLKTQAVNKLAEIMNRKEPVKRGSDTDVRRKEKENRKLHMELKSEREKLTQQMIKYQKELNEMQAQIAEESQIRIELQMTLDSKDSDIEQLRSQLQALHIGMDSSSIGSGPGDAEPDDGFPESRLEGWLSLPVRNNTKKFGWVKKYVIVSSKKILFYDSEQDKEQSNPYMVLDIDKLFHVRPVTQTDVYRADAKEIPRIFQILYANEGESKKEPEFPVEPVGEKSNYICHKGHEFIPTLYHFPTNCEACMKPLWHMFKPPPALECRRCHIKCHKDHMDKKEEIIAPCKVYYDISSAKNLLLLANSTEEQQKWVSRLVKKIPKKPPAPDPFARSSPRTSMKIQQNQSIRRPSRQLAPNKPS

What was measured:
[1] = molecular target: SorL1 (mouse (endogenous in MEFs)) (UniProt O88307); assay: co-IP; 300 ug wild type MEF lysate in RIPA buffer; 2 ug anti-SorL1 or anti-ROCK2 antibody or control IgG on protein A/G plus agarose beads; immunoblot for the other protein; endogenous proteins
[2] = molecular target: rho activated coiled coil protein kinase 2 (ROCK2) (mouse (endogenous in MEFs)) (UniProt P70336); assay: as above

Row | binding [1] | binding [2] | Substance
1 | binds |  | rho activated coiled coil protein kinase 2 (ROCK2) (from UniProt P70336 1-1388) (enzyme)
2 |  | binds | SorL1 (from UniProt O88307 82-2215)
